Literature values, collected in US9156879B1, “Chromatography media” (Merck Sharp & Dohme Corp., priority 2010, dated 2015).
At least one compound was matched to its structure with a doubt left.

Settings: critical micelle concentration of detergent

Row | Structure (SMILES) | CMC Molarity
1 | CCCCCCCCCCCCOCCOCCOCCOCCOCCOCCOCCOCCO [C12E8] | 8.7 × 10−5 Molarity
2 | C[C@H](CCC(=O)O)[C@H]1CC[C@H]2[C@@H]3[C@H](O)C[C@@H]4C[C@H](O)CC[C@]4(C)[C@H]3C[C@H](O)[C@]12C [Cholate] | 1.4 × 10−2 Molarity
3 | CCCCCCCCO[C@@H]1O[C@H](CO)[C@@H](O)[C@H](O)[C@H]1O [Octylglucoside] | 2.3 × 10−2 Molarity
4 | CCCCCCCCCCCCCC[N+](C)(C)CCCS(=O)(=O)[O-] [Zwittergent 3-14] | 3.0 × 10−4 Molarity
